Measured values reported in article doi:10.1101/2022.03.07.483315.
These are yes or no findings as the source states them, for the method shown. Some binding calls cover weakened binding; strength is not graded here.

Chains of the proteins cited; added tags and fusions are not shown. Lines headed by an entry give the natural chain unless they say otherwise; changes in a name come on top.
UniProt P47110: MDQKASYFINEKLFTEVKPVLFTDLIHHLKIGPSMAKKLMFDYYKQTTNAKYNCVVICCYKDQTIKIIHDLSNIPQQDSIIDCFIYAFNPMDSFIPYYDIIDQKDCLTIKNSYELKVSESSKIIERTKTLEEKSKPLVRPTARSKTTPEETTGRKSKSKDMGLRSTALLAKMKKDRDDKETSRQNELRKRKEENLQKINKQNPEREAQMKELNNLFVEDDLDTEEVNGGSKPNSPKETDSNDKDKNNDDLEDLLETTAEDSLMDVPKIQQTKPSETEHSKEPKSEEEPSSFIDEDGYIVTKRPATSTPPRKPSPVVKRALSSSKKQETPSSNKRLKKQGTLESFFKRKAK

Columns and labels:
[1] = target: T1, Pol3, catalytic subunit of budding yeast DNA polymerase δ (wildtype) (budding yeast) (UniProt P15436); assay: co-purification
T1 sequence: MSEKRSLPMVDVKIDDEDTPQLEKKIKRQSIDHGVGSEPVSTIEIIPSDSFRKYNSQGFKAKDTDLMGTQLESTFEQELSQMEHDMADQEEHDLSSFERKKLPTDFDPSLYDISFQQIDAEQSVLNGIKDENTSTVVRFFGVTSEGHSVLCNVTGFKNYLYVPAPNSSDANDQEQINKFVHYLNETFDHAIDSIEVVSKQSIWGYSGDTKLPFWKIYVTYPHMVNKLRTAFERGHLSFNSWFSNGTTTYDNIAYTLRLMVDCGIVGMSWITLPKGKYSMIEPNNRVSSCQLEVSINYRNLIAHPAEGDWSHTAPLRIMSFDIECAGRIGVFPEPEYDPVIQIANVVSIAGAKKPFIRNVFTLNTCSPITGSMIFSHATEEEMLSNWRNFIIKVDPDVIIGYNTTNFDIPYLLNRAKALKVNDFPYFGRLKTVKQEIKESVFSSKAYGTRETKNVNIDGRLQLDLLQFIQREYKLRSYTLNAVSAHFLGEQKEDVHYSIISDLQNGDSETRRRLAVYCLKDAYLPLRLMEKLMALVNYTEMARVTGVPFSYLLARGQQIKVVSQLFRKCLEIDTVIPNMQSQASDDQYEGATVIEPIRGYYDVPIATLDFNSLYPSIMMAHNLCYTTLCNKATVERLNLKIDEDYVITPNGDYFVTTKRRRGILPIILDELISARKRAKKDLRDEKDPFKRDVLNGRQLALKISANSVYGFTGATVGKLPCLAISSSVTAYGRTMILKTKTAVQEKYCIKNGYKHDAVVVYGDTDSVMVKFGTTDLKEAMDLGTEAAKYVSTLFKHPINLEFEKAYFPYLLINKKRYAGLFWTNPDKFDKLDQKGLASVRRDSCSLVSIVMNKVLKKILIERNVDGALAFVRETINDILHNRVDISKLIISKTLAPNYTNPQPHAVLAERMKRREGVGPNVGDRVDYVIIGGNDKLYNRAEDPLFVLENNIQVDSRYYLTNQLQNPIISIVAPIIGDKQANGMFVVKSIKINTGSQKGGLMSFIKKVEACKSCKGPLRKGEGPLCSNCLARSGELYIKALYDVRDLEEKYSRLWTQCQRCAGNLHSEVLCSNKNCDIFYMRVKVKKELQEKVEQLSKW

[2] = target: T2, Pol3 D941Y, catalytic subunit of budding yeast DNA polymerase δ (budding yeast) (UniProt P15436); assay: co-purification
T2 sequence: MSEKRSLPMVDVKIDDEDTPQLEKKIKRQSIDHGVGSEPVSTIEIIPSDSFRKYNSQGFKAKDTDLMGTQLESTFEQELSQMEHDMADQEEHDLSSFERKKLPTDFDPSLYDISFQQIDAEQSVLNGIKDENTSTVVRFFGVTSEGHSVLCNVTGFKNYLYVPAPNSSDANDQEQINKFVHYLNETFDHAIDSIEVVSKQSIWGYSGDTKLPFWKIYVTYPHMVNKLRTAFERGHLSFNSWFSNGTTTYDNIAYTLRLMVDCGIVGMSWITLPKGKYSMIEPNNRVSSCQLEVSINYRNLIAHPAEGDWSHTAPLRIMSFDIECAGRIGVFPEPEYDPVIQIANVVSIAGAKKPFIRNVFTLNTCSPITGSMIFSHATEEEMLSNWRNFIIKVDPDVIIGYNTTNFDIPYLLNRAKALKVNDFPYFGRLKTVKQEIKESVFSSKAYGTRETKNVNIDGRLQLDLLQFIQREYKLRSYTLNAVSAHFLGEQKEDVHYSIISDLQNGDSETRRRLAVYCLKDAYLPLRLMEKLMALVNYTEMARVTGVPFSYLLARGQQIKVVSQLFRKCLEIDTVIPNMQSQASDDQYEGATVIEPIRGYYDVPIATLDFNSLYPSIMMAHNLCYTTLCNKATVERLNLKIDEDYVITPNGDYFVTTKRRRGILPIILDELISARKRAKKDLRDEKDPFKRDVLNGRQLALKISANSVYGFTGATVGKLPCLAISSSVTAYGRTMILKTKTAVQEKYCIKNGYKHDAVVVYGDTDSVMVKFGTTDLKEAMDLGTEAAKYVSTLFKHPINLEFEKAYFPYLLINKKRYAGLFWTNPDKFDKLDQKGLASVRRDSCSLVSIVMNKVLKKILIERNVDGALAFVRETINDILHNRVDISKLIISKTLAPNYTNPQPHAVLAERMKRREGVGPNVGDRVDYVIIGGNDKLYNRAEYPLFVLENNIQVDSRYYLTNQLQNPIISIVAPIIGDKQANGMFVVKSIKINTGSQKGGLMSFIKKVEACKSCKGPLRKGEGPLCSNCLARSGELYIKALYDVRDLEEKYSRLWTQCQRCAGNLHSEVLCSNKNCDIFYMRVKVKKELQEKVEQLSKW

Molecule | binding [1] | binding [2]
Pol32, subunit of budding yeast DNA polymerase δ (from UniProt P47110 1-350) | binds | binds
Pol31, subunit of budding yeast DNA polymerase δ (protein, UniProt P46957 1-487) MDALLTKFNEDRSLQDENLSQPRTRVRIVDDNLYNKSNPFQLCYKKRDYGSQYYHIYQYRLKTFRERVLKECDKRWDAGFTLNGQLVLKKDKVLDIQGNQPCWCVGSIYCEMKYKPNVLDEVINDTYGAPDLTKSYTDKEGGSDEIMLEDESGRVLLVGDFIRSTPFITGVVVGILGMEAEAGTFQVLDICYPTPLPQNPFPAPIATCPTRGKIALVSGLNLNNTSPDRLLRLEILREFLMGRINNKIDDISLIGRLLICGNSVDFDIKSVNKDELMISLTEFSKFLHNILPSISVDIMPGTNDPSDKSLPQQPFHKSLFDKSLESYFNGSNKEILNLVTNPYEFSYNGVDVLAVSGKNINDICKYVIPSNDNGESENKVEEGESNDFKDDIEHRLDLMECTMKWQNIAPTAPDTLWCYPYTDKDPFVLDKWPHVYIVANQPYFGTRVVEIGGKNIKIISVPEFSSTGMIILLDLETLEAETVKIDI | binds | binds
